Laboratory results taken from publication doi:10.1101/2025.07.08.663435 (bioRxiv, 2025).
For at least one entry, the source does not settle the construct or the ends of the probe. At least one verdict rests on a figure or table, not on a statement of the authors. Where a protein sequence is shown, tags need not be part of it.

Target: T1, SMCHD1 hinge domain (UniProt A6NHR9)
T1 sequence (looked up): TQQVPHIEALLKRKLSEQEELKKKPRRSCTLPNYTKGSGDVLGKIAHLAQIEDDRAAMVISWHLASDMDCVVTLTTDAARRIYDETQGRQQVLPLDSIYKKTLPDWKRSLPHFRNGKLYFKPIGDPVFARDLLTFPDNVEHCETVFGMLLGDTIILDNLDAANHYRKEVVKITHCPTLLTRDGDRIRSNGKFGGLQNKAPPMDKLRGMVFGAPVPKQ
Experiment: EMSA
Conditions: 0.5-50 uM protein, 2 mM Mg2+; residues 1682-1898

“CCTAGGCTACACCTACTCTTTGTAAGAATTAAGCTTC (double strand) [FAM 37 bp duplex]”: binds.
